Data as given in PubChem BioAssay AID1259254 (NCATS, 2017)

Screen: 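Genome-wide screen for genes that prevent DNA re-replication in cancer cells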 (primary screen)
Cells: human HCT116 colorectal cancer cells
Knock-down reagent: single siRNA against human genes
Time to read-out: 3 days
Measured: 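Nuclei stained with Hoechst and imaged; cell-cycle phase assigned by DNA content; G2 share scaled per plate, non-targeting siRNA 0%, GMNN siRNA 100%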
Scale: G2 robust z-score: higher = more G2 cells, more excess DNA replication
Call rule: 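Active siRNAs have a G2 robust z of 5 or more median absolute deviations over the median, which in these data means about 38% or higher of GMNN control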
This is a random part of about 59,000 reagents. In the full data, about 1,550 (2.6%) got an active call. 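G2 share is only a proxy for re-replication; each gene was hit by three separate siRNAs, and active genes were retested.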 Reagents against one gene are numbered here. Not all columns of the deposit are shown. Not stated in the record: the amount of reagent.

With knock-down of C19orf48P #1, the screen gave G2 robust z-score -0.824; inactive.
With knock-down of C19orf48P #2, the screen gave G2 robust z-score -1.01; inactive.
For C19orf48P #3, the values are G2 robust z-score 3.01; inactive.
Silencing of CARMN #1 came out at: G2 robust z-score 1.59; inactive.
After knock-down of CARMN #2 the results were G2 robust z-score -0.528; inactive.
Against CARMN #3, the values are G2 robust z-score -0.666; inactive.
Silencing of MARVELD3 #1 came out at: G2 robust z-score 0.588; inactive.
After knock-down of MARVELD3 #2, the screen gave G2 robust z-score 0.109; inactive.
With knock-down of MARVELD3 #3 the results were G2 robust z-score -0.692; inactive.
Knock-down of MAST3 #1 came out at: G2 robust z-score -1.71; inactive.
Depletion of MAST3 #2 came out at: G2 robust z-score -1.21; inactive.
With knock-down of MAST3 #3 the results were G2 robust z-score -0.0551; inactive.
Silencing of PDZD9 #1 resulted in: G2 robust z-score -0.125; inactive.
After knock-down of PDZD9 #2, the screen gave G2 robust z-score 0.758; inactive.
Against PDZD9 #3, the values are G2 robust z-score 1.03; inactive.

Copied from the list.
For “G2 robust z-score”, PDZD9 #3 has 1.03
MARVELD3 #2, call = inactive

Continued:
For NEURL4 #1 the deposit lists G2 robust z-score 6.51; active.
Against NEURL4 #2, the values are G2 robust z-score 1.31; inactive.
Silencing of NEURL4 #3 resulted in: G2 robust z-score -0.824; inactive.
GIMAP7 #1 gave G2 robust z-score -0.466; inactive.
With knock-down of GIMAP7 #2, the screen gave G2 robust z-score -0.446; inactive.
Silencing of GIMAP7 #3 came out at: G2 robust z-score 0.556; inactive.
Depletion of ANAPC4 #1 gave: G2 robust z-score 1.17; inactive.
With knock-down of ANAPC4 #2 the results were G2 robust z-score 1.31; inactive.
Depletion of ANAPC4 #3 gave: G2 robust z-score -0.0851; inactive.
